Results as given in patent EP4806921A1 (Daan Biotherapeutics, Inc., dated 2026).
These are yes or no findings as the source states them, for the method shown. Some results given as binding are weak or reduced against the parent protein; the word gives no strength.

Protein sequences, listed by entry. Tags and fused reporters are not part of them. Residues count along the entry.
UniProt P06731, residues 35-685: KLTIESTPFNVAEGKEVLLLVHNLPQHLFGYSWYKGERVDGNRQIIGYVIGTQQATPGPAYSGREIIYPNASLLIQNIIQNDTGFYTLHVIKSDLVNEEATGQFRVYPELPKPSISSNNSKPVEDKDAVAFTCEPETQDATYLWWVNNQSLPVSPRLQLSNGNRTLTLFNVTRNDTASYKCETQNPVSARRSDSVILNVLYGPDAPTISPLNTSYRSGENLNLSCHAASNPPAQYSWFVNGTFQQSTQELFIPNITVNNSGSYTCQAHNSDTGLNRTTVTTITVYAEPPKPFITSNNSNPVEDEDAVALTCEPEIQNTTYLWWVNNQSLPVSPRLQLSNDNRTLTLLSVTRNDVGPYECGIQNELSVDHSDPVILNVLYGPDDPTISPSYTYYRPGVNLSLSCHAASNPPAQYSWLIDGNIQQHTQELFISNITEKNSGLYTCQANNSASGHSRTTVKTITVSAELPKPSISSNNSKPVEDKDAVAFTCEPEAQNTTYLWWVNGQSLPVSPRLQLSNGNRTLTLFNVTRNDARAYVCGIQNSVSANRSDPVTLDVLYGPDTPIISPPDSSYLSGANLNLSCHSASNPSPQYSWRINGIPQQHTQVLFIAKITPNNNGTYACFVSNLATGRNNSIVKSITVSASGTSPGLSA

B1: humanized 81E3A8-02 antibody (antibody, V domains shown)
VH: QIQLVQSGSELKKPGASVKVSCKASGYTFTNFGMNWVRQAPGQGLEWMGWINTYTGKPTYDDDFKGRFVFSLDTSVSTAYLQISSLKAEDTAVYYCAREAGKDYAMDYWGQGTLVTVSS
VL: EIVLTQSPATLSLSPGERATLSCSASSSVTFMHWYQQKPGQAPRRLIYDTSKLASGIPARFSGSGSGTDYTLTISSLEPEDAAVYYCQQWNNYPWTFGGGTKVEIK
B2: humanized 81E3A8-12 antibody (antibody, V domains shown)
VH: QIQLVQSGAEVKKPGASVKVSCKASGYTFTNFGMNWVRQAPGQGLEWMGWINTYTGKPTYDDDFKGRVTMTLDTSTSTAYMELRSLRSDDMAVYYCAREAGKDYAMDYWGQGTLVTVSS
VL: EIVLTQSPATLSVSPGERATLSCSASSSVTFMHWYQQKPGQAPRRLIYDTSKLASGIPARFSGSGSGTEYTLTISSMQSEDAAVYYCQQWNNYPWTFGGGTKVEIK
B3: humanized 81E3A8-14 antibody (antibody, V domains shown)
VH: QIQLVQSGSELKKPGASVKVSCKASGYTFTNFGMNWVRQAPGQGLEWMGWINTYTGKPTYDDDFKGRFVFSLDTSVSTAYLQISSLKAEDTAVYYCAREAGKDYAMDYWGQGTLVTVSS
VL: DIQLTQSPSSLSASVGDRVTITCSASSSVTFMHWYQQKPGKAPKRLIYDTSKLASGVPSRFSGSGSGTDYTLTISSLQPEDAATYYCQQWNNYPWTFGGGTKVEIK
B4: humanized 81E3A8-10 antibody (antibody, V domains shown)
VH: QIQLVQSGSELKKPGASVKVSCKASGYTFTNFGMNWVRQAPGQGLEWMGWINTYTGKPTYDDDFKGRFVFSLDTSVSTAYLQISSLKAEDTAVYYCAREAGKDYAMDYWGQGTLVTVSS
VL: EIVLTQSPATLSVSPGERATLSCSASSSVTFMHWYQQKPGQAPRRLIYDTSKLASGIPARFSGSGSGTEYTLTISSMQSEDAAVYYCQQWNNYPWTFGGGTKVEIK
B5: humanized 81E3A8-06 antibody (antibody, V domains shown)
VH: QIQLVQSGSELKKPGASVKVSCKASGYTFTNFGMNWVRQAPGQGLEWMGWINTYTGKPTYDDDFKGRFVFSLDTSVSTAYLQISSLKAEDTAVYYCAREAGKDYAMDYWGQGTLVTVSS
VL: DIQLTQSPSTLSASVGDRVTITCSASSSVTFMHWYQQKPGKAPKRLIYDTSKLASGVPSRFSGSGSGTEYTLTISSLQPDDAATYYCQQWNNYPWTFGGGTKVEIK
B6: humanized 45A2E10-02 antibody (antibody, V domains shown)
VH: QVQLQESGPGLVKPSETLSLTCTVSGGSISNYGVHWIRQPPGKGLEWIGLIWAGGHTNYNSALMSRVTISKDNSKSQISLKLSSVTAADTAVYYCAREVRRDWYFDVWGQGTMVTVSS
VL: DIQMTQSPSSLSASVGDRVTITCRASENIYSYLTWYQQKPGKAPKLLIYNAKILAEGVPSRFSGSGSGTDFTLTISSLQPEDFATYYCQHHFGTPFTFGQGTKLEIK
B7: humanized 45A2E10-06 antibody (antibody, V domains shown)
VH: QVQLQESGPGLVKPSQTLSLTCAVYGGSFSNYGVHWIRQPPGKGLEWIGLIWAGGHTNYNSALMSRVTISKDNSKSQISLKLSSVTAADTAVYYCAREVRRDWYFDVWGQGTMVTVSS
VL: DIQMTQSPSTLSASVGDRVTITCRASENIYSYLTWYQQKPGKAPKLLIYNAKILAEGVPSRFSGSGSGTEFTLTISSLQPDDFATYYCQHHFGTPFTFGQGTKLEIK
B8: humanized 45A2E10-09 antibody (antibody, V domains shown)
VH: QVQLQESGPGLVKPSQTLSLTCAVYGGSFSNYGVHWIRQPPGKGLEWIGLIWAGGHTNYNSALMSRVTISKDNSKSQISLKLSSVTAADTAVYYCAREVRRDWYFDVWGQGTMVTVSS
VL: EIVMTQSPATLSVSPGERATLSCRASENIYSYLTWYQQKPGQAPRLLIYNAKILAEGIPARFSGSGSGTEFTLTISSLQSEDFAVYYCQHHFGTPFTFGQGTKLEIK
B9: humanized 45A2E10-03 antibody (antibody, V domains shown)
VH: QVQLQESGPGLVKPSQTLSLTCAVYGGSFSNYGVHWIRQPPGKGLEWIGLIWAGGHTNYNSALMSRVTISKDNSKSQISLKLSSVTAADTAVYYCAREVRRDWYFDVWGQGTMVTVSS
VL: DIQMTQSPSSLSASVGDRVTITCRASENIYSYLTWYQQKPGKAPKLLIYNAKILAEGVPSRFSGSGSGTDFTLTISSLQPEDFATYYCQHHFGTPFTFGQGTKLEIK
B10: humanized 45A2E10-08 antibody (antibody, V domains shown)
VH: QVQLQESGPGLVKPSETLSLTCTVSGGSISNYGVHWIRQPPGKGLEWIGLIWAGGHTNYNSALMSRVTISKDNSKSQISLKLSSVTAADTAVYYCAREVRRDWYFDVWGQGTMVTVSS
VL: EIVMTQSPATLSVSPGERATLSCRASENIYSYLTWYQQKPGQAPRLLIYNAKILAEGIPARFSGSGSGTEFTLTISSLQSEDFAVYYCQHHFGTPFTFGQGTKLEIK
B11: humanized 45A2E10-05 antibody (antibody, V domains shown)
VH: QVQLQESGPGLVKPSETLSLTCTVSGGSISNYGVHWIRQPPGKGLEWIGLIWAGGHTNYNSALMSRVTISKDNSKSQISLKLSSVTAADTAVYYCAREVRRDWYFDVWGQGTMVTVSS
VL: DIQMTQSPSTLSASVGDRVTITCRASENIYSYLTWYQQKPGKAPKLLIYNAKILAEGVPSRFSGSGSGTEFTLTISSLQPDDFATYYCQHHFGTPFTFGQGTKLEIK

molecular target: CEACAM5 recombinant protein (Biacore analyte) (UniProt P06731); experiment: SPR, Biacore 8K, antibody on protein A chip, CEACAM5 1.5625 to 200 nM

binding, binds:
B1, B2, B3, B4, B5

molecular target: CEACAM5 recombinant protein (Biacore analyte) (UniProt P06731); experiment: SPR, Biacore 8K, antibody on protein A chip, CEACAM5 at 200 nM

binding, binds:
B6, B7, B8, B9, B10, B11
